According to PMC4332865:
For some of these results: A negative result means that nothing was seen under these conditions. For some of these results: At least one verdict rests on a figure or table, not on a statement of the authors. Construct, isoform or probe ends are uncertain for at least one entry. For some of these results: The comparison behind a weaker result is the experiment's own reference, which may not be listed here.

Protein sequences, listed by entry. Tags and fused reporters are not part of them. Residues count along the entry.
UniProt Q61701, 3-385: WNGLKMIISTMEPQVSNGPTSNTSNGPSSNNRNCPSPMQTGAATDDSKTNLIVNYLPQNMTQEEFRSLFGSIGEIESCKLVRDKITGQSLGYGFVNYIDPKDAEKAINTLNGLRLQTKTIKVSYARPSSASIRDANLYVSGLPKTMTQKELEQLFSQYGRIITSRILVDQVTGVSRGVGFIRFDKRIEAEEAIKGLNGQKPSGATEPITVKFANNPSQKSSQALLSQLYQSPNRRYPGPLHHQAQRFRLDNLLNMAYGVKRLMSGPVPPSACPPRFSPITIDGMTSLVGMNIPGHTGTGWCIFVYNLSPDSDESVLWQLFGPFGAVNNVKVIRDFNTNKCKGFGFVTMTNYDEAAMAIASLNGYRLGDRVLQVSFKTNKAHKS

How the values were obtained:
GST-HuD (mouse) [1] = target: GST-HuD (mouse) (UniProt Q61701); experiment: EMSA; conditions: 2 uM protein, 2 nM RNA, 150 mM NaCl, 20 mM Tris (pH not stated), 1.5 mM MgCl2, 0.5 mM DTT, 0.5 ug/ul tRNA, 20 min, room temperature, 5% PAGE in TBE, recombinant protein, residues 3-385, protein details: N-terminal GST (pGEX-2T), label: biotin (unlabeled as competitor), probe letters rebuilt from the primers and the genome, part of a longer molecule
GST-HuD (mouse) [2] = target: GST-HuD (mouse) (UniProt Q61701); experiment: competition with a labelled probe; conditions: 8 nM unlabeled vs 2 nM labeled Nova1 A, 150 mM NaCl, 20 mM Tris (pH not stated), 1.5 mM MgCl2, 0.5 mM DTT, 0.5 ug/ul tRNA, 20 min, room temperature, 5% PAGE in TBE, recombinant protein, residues 3-385, protein details: N-terminal GST (pGEX-2T), label: biotin (unlabeled as competitor), probe letters rebuilt from the primers and the genome, part of a longer molecule

AUGACCAUCCUUUUCCUUACUAUGGUUAUUUCAUACUUCGGUUGCAUGAAGGCGGCGCCCAUGAAAGAAGUAAACGUCCACGGACAAGGCAACUUGGCCUACCCAGGUGUGCGGACCCAUGGGACUCUGGAGAGCGUGAAUGGGCCCAGGGCAGGUUCGAGAGGUCUGACGACGACAUCACUGGCUGACACUUUUGAGCACGUCAUCGAAGAGCUGCUGGAUGAGGACCAGAAGGUUCGGCCCAACGAAGAAAACCAUAAGGACGCGGACUUGUACACUUCCCGGGUGAUGCUCAGCAGUCAAGUGCCUUUGGAGCCUCCUCUACUCUUUCUGCUGGAGGAAUACAAAAAUUACCUGGAUGCCGCAAACAUGUCUAUGAGGGUUCGGCGCCACUCCGACCCUGCCCGCCGUGGGGAGCUGAGCGUGUGUGACAGUAUUAGCGAGUGGGUCACAGCGGCAGAUAAAAAGACUGCAGUGGACAUGUCUGGCGGGACGGUCACAGUCCUAGAGAAAGUCCCGGUAUCCAAAGGCCAACUGAAGCAGUAUUUCUACGAGACCAAGUGUAAUCCCAUGGGUUACACCAAGGAAGGCUGCAGGGGCAUAGACAAAAGGCACUGGAACUCGCAAUGCCGAACUACCCAAUCGUAUGUUCGGGCCCUUACUAUGGAUAGCAAAAAGAGAAUUGGCUGGCGAUUCAUAAGGAUAGACACUUCCUGUGUAUGUACACUGACCAUUAAAAGGGGAAGAUAG [Bdnf CDS probe]
binding result (GST-HuD (mouse) [1]; little or no shift): binds more weakly
binding result (GST-HuD (mouse) [2]; does not compete): no binding

CCUGCGGAGGCUAAGUGGAGCUGACAUACUAUUUCCUGGCAGUGCAGGAGGAAUUUCUGAGUGGCCAUCCUAAGGUCUAGGAUGGAGGUGGGGAAUGGUACUUGAGACAUUCCUAAAGGAAGGCUCGGAAGCACCCUUCAGAGCAGGCUCUGGAAUGAUGUGUCAAGUUGCUUAGGCCUUCUGCUUUAAGUGCCUACAUUACCUAACAGUGCUCAAGAGGUUCUCGAUUGGAGAACCACACUCAAAUCCAUUUAUAGCCUCCAUCCCAUUUCUAAAUAAUUGUGUAUAAAGUUGGAUUAACCUGGAGCAACUUUGGAUCCAAAUAUGGCACAGCAAUAAUGAUAUUAAUGCAGCAUGAUGGGAAAUGUUUGCUGUGAAGAGAAUUGAUUUGCUUUGAGCUUAGACUUCAGGAAGCCUAGGUUUUUUAUUUUUUUAUUUUUGAGACAUUUUGGUAAAAGGAAAAAAAGAAAACAAACAAACAAACAAACAAAACCAGAAAAAGCAUCAAAACUCAGGCAGAAUGAGCAAUGUCUGAAAGGGCUAGAAAAACAAGACAUAGCAAGGUGCUUUCACUGUGAAAGAGACAAGAACACAGGAGGAAAUAUUGCUUCAGUGAAGAGCACAGACGGCUCCUGCCAAUUUAUUACAAGAGUCCCGUCUGUACUUUACCCUUUGGGGUUAGAAGUCAAGUUGGAAGCCUGAAUGAAUGGACCCAAUGAGAACUAGUGUUAAGCCCAUUUCCCUAGUCAGGUUUUUUUCAAGCGUGAAUGUGUUAGUGGUUACUCUCCUGGGUUCCUGAGCAUCAGAAAAAAAAAAAAAAAGAGGCAAACAAUCGCUUCAUCUUAGGAGUG [Bdnf 3'UTR B2]
binding result (GST-HuD (mouse) [1]; smaller shift than B1, B3): binds
binding result (GST-HuD (mouse) [2]; competes): binds

CUCUUUCAGAAAACAGAUUAAAAAAACAAAAAACAAAAAAAAAAAAACAAAAAACAAAAACAAAAAUUGGAACCAAAACAUUCCGUUUACAUUUUAGACACUAAGUAUCUUCGUUCUUGUUAGUACUCUGUUUUACUGCUUUCGACUUCUGAUAGCGUUGGAAUUAAAACAAUGUCAAGGUGCUGUUGUCAUUGCUUUACUGGCGUAAGGGACGGGGAAUGGGAGGGGUAGAUUUCUGUUUGUUUUGUGUUUUAUUUUGUUUGUUUGUUUGUUUUGUUUUUUAGUUCCACCCGGAGUAGGGAUGGAGAAAAUUUCUUCACUAUCCAUUCUGGUUGAUAAAGCGUUACAUUUGUAUGUUGUAAAGAUGUUUGCAAAAUCCAAUCAGAUGACUGGAAAACAAAUAAAAAUUAAGGCAACUGAAUAAAAUGCUCACACUCCACUGCCCAUGAUGUAUCUCCCUGGUCCCCCUCAGCUCACUCUUCUGGCAUGGGUCAGGGAAAAUUGCUUUUAUUGGAAAGACCAGCAUUUGUUCAAAGCAUACUCUUUCCCUCCCUCCUCCCAUUUUGGUCCCUUCUUUUUGUUUUGUUUUAAGAAAGAAAAUUAAGUUGCGCGCUUUAAAAUAUUUUACUACUGCUACAAACAGAUGAACAAUGUGUGUCAUUUUAUGACACUCAUGGAAAACAGUGAUUUUUUUUUACCCUAAAGAAAAACAAAUAAAAAUAACCCAAAAUAUUCUUUUUUUAAAAGGCAUAAAUAUUGGGUAAAUUGUAAUAUGGCCUAACAGUGUUUGCAGAUAAAAGUUAUUGUAUACACCCAGAUACUUAGAUAAGAGCAGGGAUCCACACUGCCAUUGAAAUAGGACUGAAUGGCCCU [Bdnf 3'UTR B1]
binding result (GST-HuD (mouse) [1]; among greatest shifts): binds
binding result (GST-HuD (mouse) [2]; competes): binds

GAAAGGAAACAGAAGUGGACGUCCGCUGUGACUCAGGGAGUGAAGAUACCAUCAGCAAAUAGUUUCUUUUUUGUUCAUUCGUUCCUUUCGAGUUAGCCUGUCUUUUGGAAUACCACUGAAUAUGCUGUUUUUGAAAGACUUCAUGUAGCAUAGAUUGUUUUGUGCCGUUUACCAAAUUAACCUUUGUCAUCGUUUUUUAACCUAUUCAGGAAUGCUUGGAAUAUCUGCUCUAUGUUAACUUUUUGCAGCUUCAUUCUGAGAGACAUUAGUCAAACAAACAAAAGGAUCCCCAUCACAAUCUUACAGUACUGCAAGGGCCAGGUCUGUUAAUCGGCUUCACAGGAGACAUCAGCAAUUGUGUGGUCAGUGGCUGGCUCUCUUACCCACUAAGAUACAUCAUAGCUACAUGUUGGUGGUUUAUGUUGACCUGAGAUUUAUUUGUUAAAAUCUCUUCUUCGUUUCUGUUCGUUCUGGUUCUGUUCUGUUCUGUUCUGUUCUGUUUUGGUUUUAAAGUCUUGCUGUGGUCUCUUGUUGGCAGAAAUGUUUUAUGCAUGGCAGCAGGCCUGUUGCUUUUUUAUAGUGAUUCCCAUUGAAACUGUAAGUAAAUGUCUGUGGCCUUGUUCUCUCUAUGGUAAAGAUAUUAUUCACCAUGUAAAACAAGAAAAAAUAUUUAUUGUAUUUUAGUAUAUUUAUAUAAUUAUGUUAUUGAAAAAAUUGGCAUUAAAACUUAACCACAUCAGAAGCCUAUUGUAAAUACAGGUUCUAUUUAAGUGUACCAAUUAACAUAUAAUAUAUGUUUUAAAUAUAGAAUUUUUAAUGUUUUUAAAUAUAUUUUCAAA [Bdnf 3'UTR B3]
binding result (GST-HuD (mouse) [1]; among greatest shifts): binds
binding result (GST-HuD (mouse) [2]; competes): binds

UGGAUUUAUGUUGUAUAGAUUAUAUUGAGACAAAAUUAUCUAUUUGUAUAUAUACAUAACAGGGUAAAUUAUUCAGUUAAGAAAAAAUAAUUUUAUGAACUGCAUGUAUAAAUGAAGUUUAUACAGUACAGUGGUUCUACAAUCUAUUUAUUGGACAUAUCCAUGACCUGAAAGGAAACAGUCAUUUGCGCACAACUUUAAAAGUCUGCAUUACAUUCCUCGAUAAUGUUGUGGUUUGUUGCCGUUGCCAAGAAUUGAAAACAAAAAGUUUAAAAAAAAUAAUAAUAAAUUGCAUGCUGCUUUAAUUGUGAAUUGAUAAUAAACUGUCCCUCUUUCAGAAAACAGAUU [Bdnf 3'UTR A (short)]
binding result (GST-HuD (mouse) [1]; little or no shift): binds more weakly
binding result (GST-HuD (mouse) [2]; does not compete): no binding
